# Reference: the supplement of paper PMC8728848
# Some of the results follow.
# B1: PX9961KLbvu-535-38-535 (Bacteroides vulgatus) (protein)
# chain: DKAYTDAESYTKGLHKIYSVWALSGQDGSSSSDISGLDAGNTALLRCWWTLQEQPTDEMKNAWNDAWCTEVNYMTWTTNKVEPIEGVYQRCMYIVALVNEFLKNIPNAPESIDKESYIAQARFNRAFAYYVLMDMFALPPFITEKNYSIEPAPLSREDLFNWIEAELNEIKPNLPSPRSEYGVADQAVASALLARMYLNAEIYTGKARYTECINACNEVIKAGYQLADNYADLFKADNGENPDTKKEIIYPIIFDGDKTQSWGMAAIIIGARGAEDKDVLLAHSGVDQGWAGFRATSNLVHLFDFQNDEEPKASEIQDKRGIFYDKGRSIDITSSVSGTFETEGWSVFKFSNLNSNGQPGKNTLWVDTDFPMFRLGDIYLMYAEAVARGGEGSKASAVEYINALRKRAYGDDKHNISENWLEENNFRNLLDERGRELYWEGIRRTDLVRFDLLTSGSYTWDFKGGINTGVGVNKRYNVYPIPVTDLTVNGNLQQNEGY
# Legend:
# Assay in all cases: glycan array binding signal (z-score within array); higher = stronger binding
# Settings in all cases: glycan notation: IUPAC condensed, linker removed
# [1] = target: Neu5Ac(a2-6)GlcNAc(b1-4)GlcNAc(b1-4)GlcNAc
# In short: (§1)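 The binding signal is a Z-score computed within each array and averaged over linkers. Arrays of the same protein sequence at different concentrations or buffers were also averaged together. Data originate from 3228 arrays in the Consortium for Functional Glycomics database, kept only where the protein sequence was available.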
# Neu5Ac(a2-8)Neu5Ac = target: Neu5Ac(a2-8)Neu5Ac
# In short: as §1
# [2] = target: Neu5Ac(a2-8)Neu5Ac(a2-3)Gal(b1-3)GalNAc(b1-4)[Neu5Ac(a2-3)]Gal(b1-4)Glc
# In short: as §1
# [3] = target: Neu5Ac(a2-8)Neu5Ac(a2-3)Gal(b1-3)GalNAc(b1-4)[Neu5Ac(a2-8)Neu5Ac(a2-3)]Gal(b1-4)Glc
# In short: as §1
# [4] = target: Neu5Ac(a2-8)Neu5Ac(a2-3)Gal(b1-4)Glc
# In short: as §1
# [5] = target: Neu5Ac(a2-8)Neu5Ac(a2-3)Gal(b1-4)GlcNAc
# In short: as §1
# [6] = target: Neu5Ac(a2-8)Neu5Ac(a2-3)[Gal(b1-3)GalNAc(b1-4)]Gal(b1-4)Glc
# In short: as §1
# [7] = target: Neu5Ac(a2-8)Neu5Ac(a2-3)[GalNAc(b1-4)]Gal(b1-4)Glc
# In short: as §1
# [8] = target: Neu5Ac(a2-8)Neu5Ac(a2-8)Neu5Ac
# In short: as §1
# [9] = target: Neu5Ac(a2-8)Neu5Ac(a2-8)Neu5Ac(a2-3)Gal(b1-4)Glc
# In short: as §1
# [10] = target: Neu5Ac(a2-8)Neu5Ac(a2-8)Neu5Ac(a2-3)[Gal(b1-3)GalNAc(b1-4)]Gal(b1-4)Glc
# In short: as §1
# [11] = target: Neu5Ac(a2-8)Neu5Ac(a2-8)Neu5Ac(a2-3)[GalNAc(b1-4)]Gal(b1-4)Glc
# In short: as §1
# [12] = target: Neu5Ac(a2-8)Neu5Ac(a2-8)Neu5Ac(a2-8)Neu5Ac(a2-3)[GalNAc(b1-4)]Gal(b1-4)Glc
# In short: as §1
# [13] = target: Neu5Ac(a2-8)Neu5Gc(a2-3)Gal(b1-4)GlcNAc
# In short: as §1
# [14] = target: Neu5Ac(b2-6)Gal(b1-4)GlcNAc
# In short: as §1
# Neu5Ac(b2-6)GalNAc = target: Neu5Ac(b2-6)GalNAc
# In short: as §1
# [15] = target: Neu5Ac9Ac(a2-3)Gal(b1-3)GlcNAc
# In short: as §1
# [16] = target: Neu5Ac9Ac(a2-3)Gal(b1-4)GlcNAc
# In short: as §1
# [17] = target: Neu5Ac9Ac(a2-6)Gal(b1-4)GlcNAc
# In short: as §1
# [18] = target: Neu5Gc(a2-3)Gal(b1-3)GlcNAc
# In short: as §1
# [19] = target: Neu5Gc(a2-3)Gal(b1-3)[Fuc(a1-4)]GlcNAc
# In short: as §1
# Neu5Gc(a2-3)Gal(b1-4)Glc = target: Neu5Gc(a2-3)Gal(b1-4)Glc
# In short: as §1
# [20] = target: Neu5Gc(a2-3)Gal(b1-4)GlcNAc
# In short: as §1
# [21] = target: Neu5Gc(a2-3)Gal(b1-4)GlcNAc(b1-3)Gal(b1-4)GlcNAc(b1-2)Man(a1-3)[Neu5Gc(a2-3)Gal(b1-4)GlcNAc(b1-3)Gal(b1-4)GlcNAc(b1-2)Man(a1-6)]Man(b1-4)GlcNAc(b1-4)GlcNAc
# In short: as §1
# [22] = target: Neu5Gc(a2-3)Gal(b1-4)[Fuc(a1-3)]GlcNAc
# In short: as §1
# [23] = target: Neu5Gc(a2-6)Gal(b1-4)GlcNAc
# In short: as §1
# Neu5Gc(a2-6)GalNAc = target: Neu5Gc(a2-6)GalNAc
# In short: as §1
# [24] = target: Neu5Gc(a2-8)Neu5Ac(a2-3)Gal(b1-4)GlcNAc
# In short: as §1
# [25] = target: Neu5Gc(a2-8)Neu5Gc(a2-3)Gal(b1-4)GlcNAc
# In short: as §1
# [26] = target: Neu5Gc(a2-8)Neu5Gc(a2-3)Gal(b1-4)GlcNAc(b1-3)Gal(b1-4)GlcNAc
# In short: as §1
# [27] = target: Neu5Gc(a2-8)Neu5Gc(a2-6)Gal(b1-4)GlcNAc
# In short: as §1
# [28] = target: Neu5Gc(b2-6)Gal(b1-4)GlcNAc
# In short: as §1
binder,measurement,setting,value
B1,glycan array binding signal (z-score),[1],-0.846
same,glycan array binding signal (z-score),Neu5Ac(a2-8)Neu5Ac,0.076
same,glycan array binding signal (z-score),[2],0.21
same,glycan array binding signal (z-score),[3],-0.209
same,glycan array binding signal (z-score),[4],-0.261
same,glycan array binding signal (z-score),[5],-0.884
same,glycan array binding signal (z-score),[6],-0.51
same,glycan array binding signal (z-score),[7],0.145
same,glycan array binding signal (z-score),[8],-0.48
same,glycan array binding signal (z-score),[9],-0.175
same,glycan array binding signal (z-score),[10],0.235
same,glycan array binding signal (z-score),[11],0.12
same,glycan array binding signal (z-score),[12],-0.242
same,glycan array binding signal (z-score),[13],19.4
same,glycan array binding signal (z-score),[14],0.524
same,glycan array binding signal (z-score),Neu5Ac(b2-6)GalNAc,-0.986
same,glycan array binding signal (z-score),[15],-0.088
same,glycan array binding signal (z-score),[16],-1.15
same,glycan array binding signal (z-score),[17],0.457
same,glycan array binding signal (z-score),[18],-0.403
same,glycan array binding signal (z-score),[19],-1.01
same,glycan array binding signal (z-score),Neu5Gc(a2-3)Gal(b1-4)Glc,-0.258
same,glycan array binding signal (z-score),[20],0.722
same,glycan array binding signal (z-score),[21],0.451
same,glycan array binding signal (z-score),[22],-0.252
same,glycan array binding signal (z-score),[23],-0.211
same,glycan array binding signal (z-score),Neu5Gc(a2-6)GalNAc,0.161
same,glycan array binding signal (z-score),[24],-0.218
same,glycan array binding signal (z-score),[25],-0.599
same,glycan array binding signal (z-score),[26],-0.654
same,glycan array binding signal (z-score),[27],0.005
same,glycan array binding signal (z-score),[28],-0.484

# Taken from the entries so far (2 entries):
binder,measurement,setting,value
B1,glycan array binding signal (z-score),[1],-0.846
same,glycan array binding signal (z-score),Neu5Ac(a2-8)Neu5Ac,0.076
